# PubChem BioAssay AID1259254 – NCATS, 2017
# Aim: 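Genome-wide screen for genes that prevent DNA re-replication in cancer cells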 (primary screen)
# Cell system: human HCT116 colorectal cancer cells
# Reagents: single siRNA against human genes
# Timing: 3 days
# Measurement: 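Nuclei stained with Hoechst and imaged; cell-cycle phase assigned by DNA content; G2 share scaled per plate, non-targeting siRNA 0%, GMNN siRNA 100%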
# Reading the numbers: G2 robust z-score and G2 cells, % of GMNN control: higher = more G2 cells, more excess DNA replication; raw share of cells in G2: higher = larger share of cells with G2 DNA content
# Active means: 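An siRNA counts as active if its G2 robust z-score lies at least 5 MADs above the screen median; here such calls match roughly 38% of GMNN control or more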
# The deposit covers about 59,000 reagents; this is a part drawn at random. About 1,550 of all reagents (2.6%) were called active. 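G2 share is only a proxy for re-replication; each gene was hit by three separate siRNAs, and active genes were retested.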 The raw values are shown without normalisation. Reagents against one gene are numbered here. Not stated in the record: the amount of reagent.
gene symbol,reagent no.,G2 robust z-score,"G2 cells, % of GMNN control",raw share of cells in G2 (%),Call
SELL,1,-0.765,-2.41,4.87,inactive
SELL,2,-0.268,1.08,4.92,inactive
SELL,3,1.38,12.7,8.15,inactive
CFH,1,-0.43,-0.0592,5.27,inactive
CFH,2,-0.0275,2.77,5.1,inactive
CFH,3,0.301,5.09,5.51,inactive
RNF135,1,0.265,4.83,7.44,inactive
RNF135,2,4.26,33,17,inactive
RNF135,3,-0.932,-3.59,2.89,inactive
DR1,1,0.722,8.05,9.08,inactive
DR1,2,-0.906,-3.41,2.84,inactive
DR1,3,-0.461,-0.278,3.41,inactive
CLGN,1,0.603,7.21,6.32,inactive
CLGN,2,0.305,5.11,7.24,inactive
CLGN,3,0.0647,3.42,4.35,inactive
PLXNA2,1,-0.72,-2.1,4.91,inactive
PLXNA2,2,-1.22,-5.64,3.51,inactive
PLXNA2,3,0.509,6.55,6.33,inactive
KCNJ2-AS1,1,0.255,4.76,5.54,inactive
KCNJ2-AS1,2,6.01,45.2,21.5,active
KCNJ2-AS1,3,-0.0578,2.56,5.85,inactive
PCDHB10,1,-0.518,-0.68,4.05,inactive
PCDHB10,2,1.19,11.4,8.51,inactive
PCDHB10,3,-0.682,-1.83,5.63,inactive

Not a retest: entries from further up.
gene symbol,reagent no.,G2 robust z-score,"G2 cells, % of GMNN control",raw share of cells in G2 (%),Call
KCNJ2-AS1,1,0.255,4.76,5.54,inactive
KCNJ2-AS1,2,6.01,45.2,21.5,active
KCNJ2-AS1,3,-0.0578,2.56,5.85,inactive
PCDHB10,1,-0.518,-0.68,4.05,inactive
PCDHB10,2,1.19,11.4,8.51,inactive
PCDHB10,3,-0.682,-1.83,5.63,inactive

The list goes on.
gene symbol,reagent no.,G2 robust z-score,"G2 cells, % of GMNN control",raw share of cells in G2 (%),Call
MCUR1,1,-0.759,-2.37,3.55,inactive
MCUR1,2,0.326,5.26,6.97,inactive
MCUR1,3,0.361,5.51,4.15,inactive
RNF123,1,-0.793,-2.61,4.56,inactive
RNF123,2,-0.315,0.751,4.5,inactive
RNF123,3,-0.778,-2.51,3.46,inactive
SLC38A4,1,-1.31,-6.25,2.12,inactive
SLC38A4,2,-0.311,0.777,4.46,inactive
SLC38A4,3,-0.416,0.0424,3.15,inactive
PTPRM,1,-1.17,-5.25,3.09,inactive
PTPRM,2,-0.546,-0.876,4.04,inactive
PTPRM,3,-1.31,-6.23,1.62,inactive
COIL,1,-0.198,1.58,4.85,inactive
COIL,2,1.18,11.3,10.4,inactive
COIL,3,2.12,17.9,10.4,inactive
EPHB2,1,4.95,37.8,18.1,inactive
EPHB2,2,-0.764,-2.41,4.6,inactive
EPHB2,3,0.632,7.41,6.64,inactive
SETP4,1,-0.434,-0.0847,3.61,inactive
SETP4,2,5.19,39.4,17.5,active
SETP4,3,-0.57,-1.04,2.84,inactive
RPS4XP16,1,3.49,27.5,13.5,inactive
RPS4XP16,2,0.995,9.97,6.54,inactive
RPS4XP16,3,1.03,10.2,6.46,inactive
UBTD1,1,1.42,12.9,9.82,inactive
UBTD1,2,1.72,15.1,10.9,inactive
UBTD1,3,-0.832,-2.89,1.59,inactive
ADAMTSL1,1,0.123,3.83,4.41,inactive
ADAMTSL1,2,0.792,8.54,6.13,inactive
ADAMTSL1,3,-0.587,-1.16,3.12,inactive
ADAMTSL1,4,-0.516,-0.661,3.34,inactive
ADAMTSL1,5,2.24,18.7,9.55,inactive
ADAMTSL1,6,-0.173,1.75,3.75,inactive
STK33,1,-0.138,1.99,6.21,inactive
STK33,2,2.67,21.8,13.1,inactive
STK33,3,-0.422,0.000702,3.68,inactive
NXPH3,1,1.32,12.3,8.26,inactive
NXPH3,2,-0.541,-0.836,3.58,inactive
NXPH3,3,1.93,16.5,13,inactive
SLC35B3,1,-0.931,-3.58,2.49,inactive
SLC35B3,2,0.289,5,6.44,inactive
SLC35B3,3,-0.842,-2.96,2.32,inactive
COL4A3,1,-0.331,0.635,5.6,inactive
COL4A3,2,-0.0677,2.49,5,inactive
COL4A3,3,-0.285,0.961,3.9,inactive
